{"sequences": {"note": "Amino acid sequences for entries named in this document (tags omitted). A change or cut given only in a name is not applied to a line headed by its entry.", "UniProt P18054": "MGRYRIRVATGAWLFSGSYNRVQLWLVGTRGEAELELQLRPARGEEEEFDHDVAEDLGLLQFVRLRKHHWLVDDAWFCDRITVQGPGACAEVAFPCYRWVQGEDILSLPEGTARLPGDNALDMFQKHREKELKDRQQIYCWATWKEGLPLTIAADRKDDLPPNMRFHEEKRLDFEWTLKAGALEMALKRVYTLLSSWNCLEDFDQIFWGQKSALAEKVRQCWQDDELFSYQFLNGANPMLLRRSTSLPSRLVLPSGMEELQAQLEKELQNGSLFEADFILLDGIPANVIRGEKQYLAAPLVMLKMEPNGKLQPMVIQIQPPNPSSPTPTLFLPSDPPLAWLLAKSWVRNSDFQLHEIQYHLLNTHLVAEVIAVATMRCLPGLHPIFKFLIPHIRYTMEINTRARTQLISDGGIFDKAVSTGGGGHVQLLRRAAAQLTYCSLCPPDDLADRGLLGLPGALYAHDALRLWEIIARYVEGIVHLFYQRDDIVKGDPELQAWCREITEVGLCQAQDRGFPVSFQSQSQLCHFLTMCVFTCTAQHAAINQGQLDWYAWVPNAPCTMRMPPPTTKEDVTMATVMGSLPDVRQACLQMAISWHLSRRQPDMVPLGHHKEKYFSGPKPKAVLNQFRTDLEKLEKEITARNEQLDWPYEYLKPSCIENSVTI"}, "source": "PubChem BioAssay AID1671190", "about": "(National Center for Advancing Translational Sciences (NCATS), 2021)", "note": "About 6,100 (1.1%) of roughly 580,000 compounds were called active. The inconclusive results got no clear call from the source; some entries with a clear call stand among them for comparison. Calls follow the shape of the dose curve; as a rule, active = well fitted inhibition curve with a large enough effect; inconclusive = small, poorly fitted or top-dose-only effect, or another doubt; inactive = no such curve, though single readings can be large or run the other way. Potencies beside an inconclusive call are fits to weak or partial responses and may not hold up. % is scaled to controls: 0 for no effect and ±100 for the full control effect; potency is read from the fitted curve at half-maximal effect."}
{"target": "Polyunsaturated fatty acid lipoxygenase ALOX12 (Homo sapiens) (UniProt P18054)", "experiment": "Primary qHTS assay for inhibitors of human arachidonate 12S-lipoxygenase (ALOX12): Round 2", "details": "purified 12hLO, xylenol orange hydroperoxide absorbance; activity change, negative = inhibition: at 108 µM (top of the series)", "procedure,_shortened": "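Purified human 12hLO (150 nM final) in 25 mM Hepes, 0.01% Triton X-100, pH 7.0 was preincubated 15 min at room temperature with compound. Then 40 uM arachidonic acid was added, 30 min. Hydroperoxide was read by Fe-XO absorbance ratio 573/405 nm.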"}
{"smiles": "CN1CCN(c2ccc(F)cc2N)CC1", "activity change, negative = inhibition": "inactive: 0%"}
{"smiles": "CCNC1CCCCC1", "Potency": "inconclusive: 79.4 µM [inhibitor, single point]"}
{"smiles": "Cc1ccccc1-n1c(CNc2ccccc2)nc2ccccc2c1=O", "Potency": "inconclusive: 126 µM [inhibitor, single point]"}
{"smiles": "O=C(NC1CCCCC1)OC[C@H]1C[C@@H]2CCN1C[C@@H]2c1cc(C2CCCC2)nc(-c2ccncc2)n1", "Potency": "active: 31.6 µM"}
{"smiles": "O=C1NC(=O)N(Cc2ccccc2)C(=O)/C1=C/c1cnc(-c2ccccc2)nc1", "Potency": "inconclusive: 35.5 µM [inhibitor, partial curve, poor fit]"}
{"smiles": "CC1CCCC(NC(=O)CNC(=S)N2CC3CC(C2)c2cccc(=O)n2C3)C1C", "note": "(stereo not given)", "activity change, negative = inhibition": "inactive: -0.115%"}
{"smiles": "Oc1ccc(/C=N/NP(=S)(c2ccccc2)c2ccccc2)cc1", "Potency": "inconclusive: 3.55 µM [inhibitor, full curve, poor fit]"}
{"smiles": "CC(=O)c1c(O)c(C)c(O)c(Cc2c(O)c3c(c(C(=O)/C=C\\c4ccccc4)c2O)OC(C)(C)C=C3)c1O", "Potency": "inconclusive: 28.2 µM [inhibitor, single point]"}
{"smiles": "Cc1oc(-c2ccccc2)nc1CN1C(=O)C(C)N=C(c2ccccc2F)c2cc(Cl)ccc21", "note": "(stereo not given)", "Potency": "inconclusive: 100 µM [inhibitor, partial curve, poor fit]"}
{"smiles": "CCCN1CCc2cc(O)cc3c2C1Cc1ccc(O)c(O)c1-3", "note": "(stereo not given)", "Potency": "active: 7.94 µM"}
{"smiles": "O=C([C@H]1CN2CCC1C[C@@H]2Cn1cc(CSc2ccccc2)nn1)N1CCOCC1", "note": "(stereo not given in full)", "activity change, negative = inhibition": "inactive: 14.6% [at 176 µM]"}
{"smiles": "C[C@H]1[C@@H](c2ccccc2)O[C@@H](c2ccccc2Br)N1C", "Potency": "inconclusive: 63.1 µM [inhibitor, partial curve, poor fit]"}
{"smiles": "CCC(=O)OC1(Cc2ccc(CC)cc2)CC(C)N(C)CC1C", "note": "(stereo not given)", "Potency": "inconclusive: 50.1 µM [inhibitor, partial curve, poor fit]"}
{"smiles": "c1cnc2nc(C3CCCNC3)[nH]c2c1", "note": "(stereo not given)", "Potency": "inactive"}
{"smiles": "O=C(Nc1ccc(Cl)cc1)OC1CN2CCC1CC2", "note": "(stereo not given)", "Potency": "inconclusive: 100 µM [inhibitor, partial curve, poor fit]"}
{"smiles": "CCN(CC)C(=O)c1ccc(NC(=O)Cn2nc(C)c3ccccc3c2=O)cc1", "activity change, negative = inhibition": "inactive: -4.55%"}
{"smiles": "O=C(N/N=C/c1c(O)n(Cc2ccccc2)c(=O)[nH]c1=O)c1ccccc1", "Potency": "inconclusive: 63.1 µM [inhibitor, partial curve, poor fit]"}
{"smiles": "CC(C)CCN(C1CCNCC1)C1CCOCC1", "Potency": "inconclusive: 8.91 µM [inhibitor, partial curve, poor fit]"}
{"smiles": "CN1C(=O)C(=Cc2ccc(N3CCCCC3)o2)C(=O)N(C)C1=S", "activity change, negative = inhibition": "inactive: 3.41%"}
{"smiles": "COc1c(/C=C(\\C)[N+](=O)[O-])cc2c(c1OC)OCO2", "Potency": "inconclusive: 44.7 µM [inhibitor, partial curve, poor fit]"}
{"smiles": "Cc1ccc(N2C(=O)NC(=O)/C(=C\\c3cc(C)n(-c4ccc(C(=O)O)cc4)c3C)C2=O)cc1", "Potency": "inconclusive: 44.7 µM [inhibitor, partial curve, poor fit]"}
{"smiles": "COc1ccc(S(=O)(=O)NC[C@H]2C[C@@H]3CCN2C[C@@H]3CN2CCC(Cc3ccccc3)CC2)cc1", "Potency": "active: 20 µM"}
{"smiles": "CCN1CCN(C(=O)COc2ccc3c(=O)c(-c4ccccc4)c(C)oc3c2)CC1", "activity change, negative = inhibition": "inactive: -3.38%"}
{"smiles": "CCCSc1ncc(CN2CC[C@H]3CNC[C@H]32)cn1", "Potency": "inconclusive: 5.01 µM [inhibitor, full curve]"}
{"smiles": "COc1ccc(S(=O)(=O)N2C[C@@H]3C[C@H](C2)c2c(-c4cccs4)ccc(=O)n2C3)cc1", "Potency": "inconclusive: 50.1 µM [inhibitor, partial curve, poor fit]"}
{"smiles": "O=S(=O)(c1ccc(Cl)cc1)N1CCCCC1c1cccnc1", "note": "(stereo not given)", "Potency": "inconclusive: 17.8 µM [inhibitor, full curve]"}
{"smiles": "O=C(CCN1CCCCC1)NCC(=O)Nc1ccc(Br)cc1C(=O)c1ccccc1", "Potency": "inconclusive: 44.7 µM [inhibitor, partial curve, poor fit]"}
{"smiles": "O=C(O)COc1ccc(Cl)cc1Cl", "activity change, negative = inhibition": "inactive: 14.7%"}
{"smiles": "COc1cc(CCC(=O)N2CCC3(CC2)NCc2ccccc2-n2ccnc23)on1", "activity change, negative = inhibition": "inactive: -0.986%"}
{"smiles": "CCOP(=O)(OCC)C1(O)C(=O)Nc2ccccc21", "note": "(stereo not given)", "activity change, negative = inhibition": "inactive: 13.9%"}
{"smiles": "CCOc1cc(CNCCc2cccc(F)c2)ccc1OC", "Potency": "inconclusive: 0.316 µM [inhibitor, full curve, poor fit]"}
{"smiles": "CCn1nccc1C(=O)N1CCC2(CC1)c1nccn1-c1ccccc1CN2C", "activity change, negative = inhibition": "inactive: 58%"}
{"smiles": "COCCCn1c(N)c(C(=O)NCCC(C)C)c2nc3ccccc3nc21", "activity change, negative = inhibition": "inactive: -0.0626%"}
{"smiles": "COc1ccc(N2C(=O)/C(=C/C=C/c3ccccc3[N+](=O)[O-])C(=O)NC2=S)cc1", "Potency": "active: 11.2 µM"}
{"smiles": "C(#CCN1CCCC1)CN1CCCC1", "Potency": "inconclusive: 44.7 µM [inhibitor, partial curve, poor fit]"}
{"smiles": "COc1ccc2[nH]c3c(c2c1)CCNC3", "Potency": "inconclusive: 35.5 µM [inhibitor, partial curve]"}
{"smiles": "O=c1[nH]sc2cc(F)ccc12", "Potency": "active: 39.8 µM"}
{"smiles": "Cc1cc(NC(=O)C(Cl)(Cl)Cl)no1", "Potency": "inconclusive: 112 µM [inhibitor, single point]"}
{"smiles": "CC(C)CN1Cc2cc(N3CCCCC3)ccc2-n2nncc2C1", "Potency": "inconclusive: 112 µM [inhibitor, single point]"}
{"smiles": "CN(C)[C@@H]1C(=O)C(C(N)=O)=C(O)[C@@]2(O)C(=O)C3=C(O)c4c(O)cccc4[C@@](C)(O)C3C[C@@H]12", "note": "(stereo not given in full)", "Potency": "inconclusive: 28.2 µM [inhibitor, partial curve, poor fit]"}
{"smiles": "COc1ccc(-n2nc(C)c3c2NC(=O)CSC3c2cc(OC)c(O)c(OC)c2)cc1", "note": "(stereo not given)", "Potency": "inconclusive: 11.2 µM [inhibitor, partial curve, poor fit]"}
{"smiles": "CC(C)(C)NC(=O)NC(=O)CN1CC=C(c2ccccc2)CC1", "activity change, negative = inhibition": "inactive: 35.9%"}
{"smiles": "O=C1NC(=O)N(c2ccc3c(c2)OCO3)C(=O)/C1=C\\c1ccc(-c2ccccc2C(=O)O)o1", "Potency": "inconclusive: 44.7 µM [inhibitor, partial curve, poor fit]"}
{"smiles": "CCCOC(=O)c1cc2c(cn1)[nH]c1ccccc12", "activity change, negative = inhibition": "inactive: 4.37%"}
{"smiles": "COc1ccc(C(=O)N2C[C@@H]3C[C@H](C2)c2c(NC(=O)c4ccco4)ccc(=O)n2C3)cc1", "activity change, negative = inhibition": "inactive: 16.5% [at 176 µM]"}
